The full ranking holds about 33,000 sequences; the median of “E-score (-0.5 to 0.5)” is about -0.0059, and the highest 2% start at about 0.26. This is one part of the list.
Biological target: T1, Cin5 (UniProt P40917)
T1 sequence: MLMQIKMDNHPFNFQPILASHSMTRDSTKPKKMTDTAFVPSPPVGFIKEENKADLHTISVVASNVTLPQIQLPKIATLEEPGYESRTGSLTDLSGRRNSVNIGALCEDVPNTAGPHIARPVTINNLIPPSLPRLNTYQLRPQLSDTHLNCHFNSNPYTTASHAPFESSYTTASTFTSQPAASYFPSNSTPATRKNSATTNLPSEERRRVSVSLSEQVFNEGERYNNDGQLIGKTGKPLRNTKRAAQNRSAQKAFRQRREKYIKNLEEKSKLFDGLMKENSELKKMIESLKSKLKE
Test: PBM E-score (8-mer binding enrichment) (E-score (-0.5 to 0.5)); higher = stronger / more preferred TF binding
Settings: protein concentration: 100 nM; construct: GST-full length
Summary of the method: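 GST-tagged yeast TFs (full-length or DNA-binding domain) were made by PURExpress in vitro transcription/translation and applied at about 100-200 nM to universal all-10-mer Agilent arrays. The arrays were made double-stranded by primer extension, on fresh or once-stripped slides. Bound protein was detected with fluorescent anti-GST, and scans were normalised with masliner. Each ungapped eight-base word, pooled with its reverse complement, received an E-score (modified Wilcoxon-Mann-Whitney statistic) from the Universal PBM Analysis Suite.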

Row | Sequence | PBM E-score
1 | GCAGACCC | -0.202
2 | CTTTCCAA | -0.0214
3 | AAGCACAT | 0.206
4 | AGACGTCA | -0.00622
5 | AACTCGGA | 0.0515
6 | CACGAGCC | -0.193
7 | AAGTTTGA | 0.107
8 | AGCTTGCA | 0.11
9 | ACGTCCGA | -0.133
10 | AGTCTTAC | 0.0876
11 | AAGATGTC | -0.0313
12 | AATCGTGT | 0.129
13 | AACGCACG | 0.0844
14 | GAATCTGA | -0.0334
15 | TCACACAA | 0.0832
16 | ACAATTTA | 0.185
17 | GGCAGCAA | -0.00946
18 | AATCCCGG | 0.0516
19 | GGCCGGCC | -0.163
20 | ATGCGACA | 0.0796
21 | ACACCCTC | -0.0884
22 | GCGAACGA | 0.042
23 | CTTCTGCA | -0.032
24 | CTCCAGGC | -0.175
25 | CTTGCGGC | -0.0724

Row | Sequence | PBM E-score
26 | ACCCCGTG | 0.0026
27 | CCGCTGGA | -0.0541
28 | CGTAATAC | 0.257
29 | ATTATTCG | 0.288
30 | CGAGCGAG | 0.188
31 | GTAAGGAA | 0.028
32 | GTAGCATA | -0.0137
33 | TTAAAAAA | 0.0101
34 | CACACTAC | 0.00364
35 | AATTTAAC | 0.179
36 | CATGTGCC | -0.0579
37 | CCGTATCC | -0.112
38 | GTCCCGTA | -0.206
39 | ATCCACGG | 0.0541
40 | CCCATGGC | -0.142
41 | GTCAAACA | -0.113
42 | AATTTGCA | 0.081
43 | GCGTAACA | 0.0788
44 | AGTTTGTG | -0.0154
45 | CTCATGAA | 0.0624
46 | ATAAACAA | 0.257
47 | AGGGATAT | -0.0496
48 | CAGGGGCA | -0.0356
49 | CTCCTTCA | -0.264
50 | AAGGATTA | 0.159

Row | Sequence | PBM E-score
51 | GTACATTA | 0.135
52 | AGGTTGAC | -0.0896
53 | ATCAGACA | 0.0704
54 | AACTTGCG | -0.0652
55 | CTAGTTAC | 0.00557
56 | AGCAACCG | -0.0611
57 | CATCAGGG | 0.0814
58 | ACCCTCCA | -0.136
59 | AACGGGCT | -0.23
60 | GGTGATTA | 0.213
61 | AATCGGCC | 0.0309
62 | CCGATCCA | 0.0442
63 | GAGTCGCA | -0.218
64 | CAGGTGAG | -0.121
65 | GGCAATGA | -0.0311
66 | AAAGTTTC | 0.0422
67 | CAAGTACA | 0.0428
68 | CACGCTGG | -0.116
69 | CTGACTTC | 0.00213
70 | GGCCCCAC | -0.183
71 | AAACCTGT | 0.0662
72 | ACATATTC | 0.241
73 | CAGACGGA | -0.0358
74 | ACTAGCAT | 0.0848
75 | CGCATACC | 0.126

Row | Sequence | PBM E-score
76 | AGGCGTAA | 0.0228
77 | AAGGCATG | -0.156
78 | CCAACGTC | -0.147
79 | CCTTCTCC | -0.251
80 | CTCAATTA | 0.143
81 | CGACACGA | 0.0696
82 | AACGAAGC | -0.00547
83 | ACCTGCAT | 0.0415
84 | CTAATAAG | 0.0511
85 | AGGCAGTC | -0.145
86 | GGTCCGCA | -0.0684
87 | ATCCTCAT | -0.024
88 | TCCCAAGA | -0.0379
89 | GTAATGCA | -1e-05
90 | GTGATGAA | 0.0186
91 | GACCGGCA | -0.214
92 | ACCTACAC | -0.109
93 | CCAGAGTC | -0.0257
94 | GTAACGCA | 0.0946
95 | ATTCAGTA | 0.17
96 | ACACGGGT | -0.032
97 | CCAGCTAA | -0.0794
98 | ATGTCTTA | 0.109
99 | CGAACGGA | 0.00699
100 | CACATGAC | -0.0762

4 entries from above in a different format.
Row,Sequence,PBM E-score
32,GTAGCATA,-0.0137
33,TTAAAAAA,0.0101
34,CACACTAC,0.00364
35,AATTTAAC,0.179

(further entries)

Row | Sequence | PBM E-score
101 | AATAATGT | 0.273
102 | AAAAGCTG | -0.148
103 | ACAAACAT | 0.139
104 | ATAGTGAA | 0.138
105 | CCCGAGCA | -0.113
106 | CGGACAAC | 0.135
107 | GAGTACAA | 0.126
108 | CATACCCG | -0.0196
109 | GACATGGC | 0.0245
110 | GGAATCAA | 0.0945
111 | ACACGCCC | -0.148
112 | CCAAGTGC | -0.168
113 | GACCCGGA | -0.305
114 | AGAACACG | 0.0977
115 | AACGCGTA | 0.0133
116 | TGCTGGAA | -0.0131
117 | GGCCGAGA | 0.0879
118 | ACGCCAAC | -0.179
119 | ACCTTGCC | -0.0657
120 | GTTACTGA | -0.0293
121 | GGCGTTGA | 0.0231
122 | CAACACAG | -0.0269
123 | CGGTTGAG | 0.016
124 | GAGTCGCC | -0.216
125 | GGTACTGA | -0.154

Some of the entries above in another layout:
AAAAGCTG
  PBM E-score: -0.148
GGCGTTGA
  PBM E-score: 0.0231

Later entries

Row | Sequence | PBM E-score
126 | ACTATTCC | 0.0567
127 | ATGTGCGG | 0.0798
128 | CGATTTAG | 0.182
129 | GGCACTAC | -0.205
130 | AAGTCGGT | -0.125
131 | GTTCGTTA | 0.0785
132 | GCGCTAAA | 0.0631
133 | GTCTGGGA | -0.247
134 | AAATAGAA | -0.0117
135 | CCCTTGGC | -0.24
136 | CGAGTAAA | 0.0542
137 | AAATATTC | 0.183
138 | GGGTAACC | -0.296
139 | AATCGTAT | 0.185
140 | CTAGGCTA | -0.263
141 | AGCGGCAC | -0.129
142 | CATGCAGA | 0.0168
143 | AGGTGTAG | -0.106
144 | CGCGTTTC | -0.119
145 | AGCGGTGC | -0.206
146 | GATATTAC | 0.315
147 | CCCTATCA | 0.0245
148 | ACCTATGA | -0.199
149 | ACAATTGT | 0.188
150 | AACCACTC | -0.0101

Row | Sequence | PBM E-score
151 | AGTAACCA | 0.102
152 | CGAGCGAC | -0.191
153 | AAGCATCT | 0.0862
154 | AACTAACA | 0.226
155 | AATATCCG | 0.104
156 | GTCAGTAA | 0.0254
157 | AGAGCTAT | -0.183
158 | ACCGGAAG | 0.175
159 | CATCCCTA | 0.122
160 | CCTACTGC | -0.164
161 | GTCTACAC | -0.128
162 | CGCTCTAG | -0.28
163 | AGGTTCCC | -0.268
164 | CAGGACGA | -0.0233
165 | AAACTGCA | 0.0472
166 | ACGAGAAT | 0.183
167 | CAGTATTA | 0.294
168 | AATTGACC | 0.0528
169 | CTATCCCC | -0.213
170 | CGCACTAG | -0.129
171 | AACATCCC | 0.0021
172 | GGGACGCA | -0.269
173 | CAACCTAC | -0.0326
174 | AAGTAGGG | 0.123
175 | AACTTTTC | 0.0286

Row | Sequence | PBM E-score
176 | AGGGCCGG | -0.223
177 | AACTGGGC | -0.214
178 | GTGCAGCA | -0.207
179 | CATGGGCA | -0.0955
180 | AATTCACG | -0.0153
181 | CCCGTGGC | -0.253
182 | GCCACCTA | -0.175
183 | AATCCAAA | 0.161
184 | GCAAGTGA | 0.0515
185 | TAGGACAA | 0.0959
186 | AGGTTACA | 0.0231
187 | GCTGTTCA | -0.0739
188 | GAATACAC | -0.0125
189 | ACAGAATA | 0.179
190 | CCGGGGAC | -0.257
191 | GTCTATCA | 0.0834
192 | ACAGGAAA | 0.168
193 | ACCTCGAA | -0.0141
194 | ACATGATA | 0.187
195 | ATTAGCCA | 0.135
196 | ACATTACC | 0.0907
197 | ACGTAGCC | -0.325
198 | ATTTAAGA | -0.0445
199 | GGGCTTAC | 0.21
200 | AAGGTGTG | 0.0155

Some values from the list:
CATGGGCA – PBM E-score: -0.0955
GCAAGTGA – PBM E-score: 0.0515
TAGGACAA – PBM E-score: 0.0959
ATTTAAGA – PBM E-score: -0.0445
GAATACAC – PBM E-score: -0.0125

More records follow:

Row | Sequence | PBM E-score
201 | CCCCTCAA | 0.043
202 | GTACCCCA | 0.0392
203 | CTACGTCC | -0.205
204 | ACAGGGCT | -0.334
205 | AATTTAAA | 0.103
206 | GCTTGGAA | -0.0446
207 | AGGTAATG | 0.124
208 | CCTGGCCG | -0.166
209 | CACAGAGG | -0.151
210 | GGACCTAC | -0.0461
211 | ACACTTCG | 0.0775
212 | CCTATGCA | 0.0538
213 | AAATTTCT | 0.00133
214 | ACGACCAA | -0.129
215 | CTCGTGAC | -0.102
216 | CAGAAAAA | 0.0244
217 | CACCTACC | -0.23
218 | ACACCGCT | -0.166
219 | AGCGGGGA | -0.142

Reference: the supplement of paper PMC3334620
